Laboratory results: ChEMBL document CHEMBL3046637, “Synthesis of new series of pyrazolo[4,3-d]pyrimidin-7-ones and pyrido[2,3-d]pyrimidin-4-ones for their bacterial and cyclin-dependent kinases (CDKs) inhibitory activities” (Med Chem Res, 2011)
Converted amounts (≈) assume the structure as drawn.

Tested on: Escherichia coli
Assay: Antimicrobial activity against Escherichia coli NCTC 10418 by two-fold serial dilution technique
Format: functional

MIC: 7.81 µg/mL (≈ 22.4 µM)
SMILES: CC1(C)S[C@@H]2[C@H](NC(=O)[C@H](N)c3ccccc3)C(=O)N2[C@H]1C(=O)O [AMPICILLIN]
